These are yes or no findings as the source states them, for the method shown. Binding seen in cells or lysates may run through a third protein. A yes stands for co-enrichment or nearness to the bait. Other partners may have been found.
Target: endogenous Synaptotagmin 1 of primary hippocampal neurons (proximity labelling and PLA) (rat (endogenous in primary hippocampal neurons)) (UniProt P21707)
Experiment: proximity labelling; proteins biotinylated near Syt1 through NbLumSyt1-APEX2 bound on live primary neurons; streptavidin beads, LC-MS/MS; hits enriched against input and against control IPs

Amino acid sequences for entries named in this document (tags omitted).
UniProt P21707: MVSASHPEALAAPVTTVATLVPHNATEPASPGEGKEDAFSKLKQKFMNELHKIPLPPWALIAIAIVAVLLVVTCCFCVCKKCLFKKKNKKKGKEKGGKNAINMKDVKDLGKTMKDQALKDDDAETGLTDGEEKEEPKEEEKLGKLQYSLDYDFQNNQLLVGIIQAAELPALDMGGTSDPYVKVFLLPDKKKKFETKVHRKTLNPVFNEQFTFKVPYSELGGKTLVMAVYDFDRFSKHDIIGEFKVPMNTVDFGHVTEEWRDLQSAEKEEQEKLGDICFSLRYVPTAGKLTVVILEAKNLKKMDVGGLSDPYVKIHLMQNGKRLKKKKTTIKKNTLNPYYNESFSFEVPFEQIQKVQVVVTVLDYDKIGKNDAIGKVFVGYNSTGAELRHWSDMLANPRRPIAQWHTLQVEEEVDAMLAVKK

binding: binds
B1: ciliary neurotrophic factor receptor (Cntfr) (receptor, UniProt Q08406 23-342)
chain: QKHSPQEAPHVQYERLGTDVTLPCGTASWDAAVTWRVNGTDLAPDLLNGSQLILRSLELGHSGLYACFHRDSWHLRHQVLLHVGLPPREPVLSCRSNTYPKGFYCSWHLSAPTYIPNTFNVTVLHGSKMMVCEKDPALKNRCHIRYMHLFSTIKYKVSISVSNALGHNTTAITFDEFTIVKPDPPENVVARPVPSNPRRLEVTWQTPSTWPDPESFPLKFFLRYRPLILDQWQHVELSNGTAHTITDAYAGKEYIIQVAAKDNEIGTWSDWSVAAHATPWTEEPRHLTTEAQAPETTTSTTSSLAPPPTTKICDPGELSS

Source: publication PMC13185310, “A versatile nanobody platform for live and super-resolution imaging of synaptic vesicle dynamics and plasticity in rodent and human neurons” (Journal of Nanobiotechnology, 2026)
